This assay concerns the target T1, P1156 (evasin from Ixodes ricinus), purified, C-terminal StrepII:His tag (Ixodes ricinus) (UniProt V5HBW0).
T1 sequence: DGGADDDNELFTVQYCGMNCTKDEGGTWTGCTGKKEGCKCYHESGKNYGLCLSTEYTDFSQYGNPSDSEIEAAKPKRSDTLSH
Description: BLI; cross-binding screen; His-tagged evasin immobilised on Ni-NTA biosensors (OctetRed); 300 nM chemokine; 30 °C; 10 mM Na2HPO4, 1.8 mM KH2PO4, 2.7 mM KCl, 500 mM NaCl, 0.1% BSA, 0.002% TWEEN-20, pH 7.4; single experiment; both purified.

Sequences of proteins named here, by UniProt entry; tags and fusion partners are left off. Residues count along the entry.
UniProt P48061, residues 22-93: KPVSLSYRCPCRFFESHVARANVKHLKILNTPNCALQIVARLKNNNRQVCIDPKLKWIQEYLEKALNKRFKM

Results are given in words; binding and its absence hold for the method and conditions named. Where a sequence is shown, tags or fusion partners need not be part of it.

As to “CXCL12 (from UniProt P48061 22-93) (ligand)”, the binding result is listed as “no binding (tested: 300 nM)”.

These data come from article PMC5910400.
